Data on eight compounds can be found in paper PMC8707212, “Immunosuppressive Sesquiterpenoids from the Edible Mushroom Craterellus odoratus” (Journal of Fungi, 2021).

SMILES strings stand for the structures.

In the data set the test system is B lymphocyte cells. As to the kind of experiment: LPS-induced B-cell proliferation ([3H]-thymidine uptake). Format: cell-based, BALB/c mice. As to conditions: SI = CC50/IC50. The protocol: Female BALB/c mice were sacrificed by cervical dislocation, and their spleens were aseptically removed. After cell debris, mononuclear cell suspensions were prepared, and clumps were removed. Erythrocytes were depleted with ammonium chloride buffer solution. Lymphocytes were washed and resuspended in RPMI 1640 medium supplemented with 10% FBS, penicillin (100 U/mL), and streptomycin ([…]).
As mentioned above, fresh spleen cells were obtained from female BALB/c mice (18–20 g). Similarly, the 5 × 10^5 spleen cells were cultured at the same conditions. The cultures, with or without various concentrations of compounds, were stimulated with 5 µg/mL of concanavalin A (ConA) to induce the T cells’ proliferative response or 10 µg/mL of lipopolysaccharide (LPS) to induce B cells’ proliferative response. Proliferation was assessed in terms of uptake of [^3H]-thymidine during 8 h of pulsing with 25 µL/well of [^3H]-thymidine, then cells will be harvested onto glass fiber filters. A Beta scintillation counter was used to count the incorporated radioactivity. Cells treated without any stimuli were used as a negative control. The immunosuppressive activity was expressed as the concentration of the compound that inhibited T or B cell proliferation to 50% (IC50) of the control value. Both the cytotoxicity and proliferation assessment were repeated twice.
`CC(=CCCC1(C)C2CCC(CO)C1C2)C(=O)O` (centres unmarked) [Compound 13, Craterodoratin M]: the “LPS-Induced B-Cell Proliferation SI” value is recorded as over 2.59.
Then `CC(=CCCC1(C)C2CCC(CO)(C2)C1O)C(=O)O` (centres unmarked) [Compound 3, Craterodoratin C], with over 3.17; and `C=C1CCC2(O)CC1C2(C)CCC=C(C)C(=O)O` (centres unmarked) [Compound 15, Craterodoratin O], with over 2.34.
In the case of `CC(=CC1CC23C4CCC(C)(OC2O1)C3C4)C(=O)O` (centres unmarked) [Compound 23, donacinoic acid A] it was over 3.02.
Then `CC(=CC(O)CC12COC3(CO)CCC1CC32)C(=O)O` (centres unmarked) [Compound 10, Craterodoratin J], with over 2.06; and `CC(=CCCC1(C)C2CCC(CO)C1(O)C2)C(=O)O` (centres unmarked) [Compound 14, Craterodoratin N], with over 3.02; and `CC(=CC(=O)CC12C(=O)OC3(C)CCC1CC32)C(=O)O` (centres unmarked) [Compound 12, Craterodoratin L], with over 2.92.
Regarding `C=C1C2CN(CC(=O)O)CC3C2C(C(C)C)CCC13C` (centres unmarked) [Compound 19, Craterodoratin S], the “LPS-Induced B-Cell Proliferation SI” value was over 1.76.
